Data: article PMC12043515, “Stepwise neofunctionalization of the NF-κB family member Rel during vertebrate evolution”
The exact form of at least one protein or probe is not confirmed. For part of these data: Results from cells or extracts need not show a direct contact. For part of these data: Weaker means in comparison with the reference protein, sequence or condition of that experiment. For part of these data: Tags and fusion partners may be left off the protein sequences shown. For part of these data: At least one verdict rests on a figure or table, not on a statement of the authors.

Amino acid sequences for entries named in this document (tags omitted). Residues count along the entry.
UniProt P15307, 8-297: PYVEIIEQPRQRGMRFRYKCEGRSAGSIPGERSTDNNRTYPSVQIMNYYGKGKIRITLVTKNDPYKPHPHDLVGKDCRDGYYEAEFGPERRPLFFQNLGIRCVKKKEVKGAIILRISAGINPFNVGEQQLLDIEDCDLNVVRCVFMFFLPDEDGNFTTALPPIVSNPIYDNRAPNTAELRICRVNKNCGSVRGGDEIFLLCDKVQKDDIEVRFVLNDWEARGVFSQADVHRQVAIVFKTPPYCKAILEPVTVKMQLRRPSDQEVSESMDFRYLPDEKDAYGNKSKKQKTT
UniProt P15307, 8-297 C143Y: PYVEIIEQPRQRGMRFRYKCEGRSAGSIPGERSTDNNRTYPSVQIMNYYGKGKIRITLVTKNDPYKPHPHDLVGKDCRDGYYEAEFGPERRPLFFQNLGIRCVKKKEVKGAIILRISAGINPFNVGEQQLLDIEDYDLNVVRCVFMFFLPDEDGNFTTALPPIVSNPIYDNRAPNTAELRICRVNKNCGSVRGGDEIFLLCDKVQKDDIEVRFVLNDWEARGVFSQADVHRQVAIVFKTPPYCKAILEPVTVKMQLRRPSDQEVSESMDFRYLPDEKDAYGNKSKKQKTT
UniProt P15307, 8-297 R108A: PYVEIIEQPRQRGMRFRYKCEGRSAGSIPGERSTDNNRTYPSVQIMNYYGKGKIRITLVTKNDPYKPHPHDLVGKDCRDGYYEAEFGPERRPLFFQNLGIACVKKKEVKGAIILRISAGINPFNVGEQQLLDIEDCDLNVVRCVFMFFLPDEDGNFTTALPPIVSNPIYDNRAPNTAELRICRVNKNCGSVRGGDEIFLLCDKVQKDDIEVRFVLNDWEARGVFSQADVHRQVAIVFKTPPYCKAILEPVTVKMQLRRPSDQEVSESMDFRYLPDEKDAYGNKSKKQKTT
UniProt P15307, 8-297 R108Q/C143Y: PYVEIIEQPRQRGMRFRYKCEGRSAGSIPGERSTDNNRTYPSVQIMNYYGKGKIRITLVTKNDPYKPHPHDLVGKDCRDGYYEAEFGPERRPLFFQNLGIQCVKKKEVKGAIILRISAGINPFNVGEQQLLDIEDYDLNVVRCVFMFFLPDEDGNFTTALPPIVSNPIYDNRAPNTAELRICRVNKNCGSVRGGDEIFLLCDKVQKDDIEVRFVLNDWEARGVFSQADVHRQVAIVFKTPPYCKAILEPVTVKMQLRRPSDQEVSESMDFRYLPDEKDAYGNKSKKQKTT
UniProt P15307, 8-297 R108Q: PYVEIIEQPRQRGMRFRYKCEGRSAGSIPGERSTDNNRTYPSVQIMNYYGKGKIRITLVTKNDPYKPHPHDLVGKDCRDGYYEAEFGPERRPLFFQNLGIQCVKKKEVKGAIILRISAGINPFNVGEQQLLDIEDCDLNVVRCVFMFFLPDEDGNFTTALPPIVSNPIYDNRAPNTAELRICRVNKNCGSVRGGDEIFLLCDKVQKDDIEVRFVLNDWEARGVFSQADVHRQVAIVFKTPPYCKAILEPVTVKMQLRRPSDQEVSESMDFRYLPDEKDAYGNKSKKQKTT
UniProt Q04207, 19-306: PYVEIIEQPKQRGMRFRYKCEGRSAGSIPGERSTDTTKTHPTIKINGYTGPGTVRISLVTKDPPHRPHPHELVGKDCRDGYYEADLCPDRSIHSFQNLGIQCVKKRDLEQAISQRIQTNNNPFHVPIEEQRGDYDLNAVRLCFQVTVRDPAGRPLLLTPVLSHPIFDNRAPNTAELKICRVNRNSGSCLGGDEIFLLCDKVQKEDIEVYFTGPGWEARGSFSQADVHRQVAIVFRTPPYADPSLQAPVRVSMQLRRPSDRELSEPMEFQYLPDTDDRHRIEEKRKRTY
UniProt P98152, 25-311: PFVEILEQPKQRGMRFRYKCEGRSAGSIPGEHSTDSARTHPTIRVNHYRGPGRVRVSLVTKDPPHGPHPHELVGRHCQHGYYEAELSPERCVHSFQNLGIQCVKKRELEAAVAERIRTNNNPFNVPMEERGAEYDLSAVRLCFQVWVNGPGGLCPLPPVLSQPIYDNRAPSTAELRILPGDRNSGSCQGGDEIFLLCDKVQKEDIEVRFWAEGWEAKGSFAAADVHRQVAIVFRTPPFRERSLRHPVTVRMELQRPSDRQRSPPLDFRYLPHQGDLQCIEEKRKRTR

Legend:
Rel RHR homodimer = Rel RHR homodimer (UniProt P15307); experiment: EMSA; settings: purified protein, control; EMSA: 10 mM Tris-HCl pH 7.5, 150 mM NaCl, 1 mM DTT, 1 mM EDTA, 5% glycerol, 80 ng/ul dI-dC, 200 ng/ul BSA, 4 C; off-rate with 100-fold unlabeled consensus; recombinant protein; label: 32P
RelA RHR homodimer = RelA RHR homodimer (UniProt Q04207); experiment: EMSA; settings: purified protein, control; EMSA: 10 mM Tris-HCl pH 7.5, 150 mM NaCl, 1 mM DTT, 1 mM EDTA, 5% glycerol, 80 ng/ul dI-dC, 200 ng/ul BSA, 4 C; off-rate with 100-fold unlabeled consensus; recombinant protein; label: 32P
Rel RHR C137Y C143Y = Rel RHR C137Y C143Y (UniProt P15307); experiment: EMSA off-rate; settings: no impact versus WT; EMSA: 10 mM Tris-HCl pH 7.5, 150 mM NaCl, 1 mM DTT, 1 mM EDTA, 5% glycerol, 80 ng/ul dI-dC, 200 ng/ul BSA, 4 C; off-rate with 100-fold unlabeled consensus; protein in a lysate after overexpression; label: 32P
Rel RHR R101A R108A = Rel RHR R101A R108A (UniProt P15307); experiment: EMSA off-rate; settings: faster off-rate than R101Q; EMSA: 10 mM Tris-HCl pH 7.5, 150 mM NaCl, 1 mM DTT, 1 mM EDTA, 5% glycerol, 80 ng/ul dI-dC, 200 ng/ul BSA, 4 C; off-rate with 100-fold unlabeled consensus; protein in a lysate after overexpression; label: 32P
[1] = target: Rel RHR R101Q C137Y R108Q,C143Y (UniProt P15307); experiment: EMSA off-rate; settings: moderately faster off-rate than R101Q; EMSA: 10 mM Tris-HCl pH 7.5, 150 mM NaCl, 1 mM DTT, 1 mM EDTA, 5% glycerol, 80 ng/ul dI-dC, 200 ng/ul BSA, 4 C; off-rate with 100-fold unlabeled consensus; protein in a lysate after overexpression; label: 32P
Rel RHR R101Q R108Q = Rel RHR R101Q R108Q (UniProt P15307); experiment: EMSA off-rate; settings: faster off-rate than WT; EMSA: 10 mM Tris-HCl pH 7.5, 150 mM NaCl, 1 mM DTT, 1 mM EDTA, 5% glycerol, 80 ng/ul dI-dC, 200 ng/ul BSA, 4 C; off-rate with 100-fold unlabeled consensus; protein in a lysate after overexpression; label: 32P
[2] = target: T1, Rel RHR chicken (chicken) (UniProt P16236); experiment: EMSA off-rate; settings: comparable to chicken RelA; EMSA: 10 mM Tris-HCl pH 7.5, 150 mM NaCl, 1 mM DTT, 1 mM EDTA, 5% glycerol, 80 ng/ul dI-dC, 200 ng/ul BSA, 4 C; off-rate with 100-fold unlabeled consensus; protein in a lysate after overexpression; protein details: N-terminal Flag; label: 32P
T1 sequence (looked up, limits assumed): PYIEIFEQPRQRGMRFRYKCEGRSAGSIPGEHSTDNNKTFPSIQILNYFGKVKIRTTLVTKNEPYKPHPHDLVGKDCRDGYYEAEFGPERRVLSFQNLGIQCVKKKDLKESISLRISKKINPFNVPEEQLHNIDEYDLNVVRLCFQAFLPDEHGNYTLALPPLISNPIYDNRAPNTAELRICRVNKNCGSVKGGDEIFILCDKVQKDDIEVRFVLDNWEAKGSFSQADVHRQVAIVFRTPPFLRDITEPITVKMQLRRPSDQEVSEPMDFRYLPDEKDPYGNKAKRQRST

Rel RHR mouse (mouse) = Rel RHR mouse (mouse) (UniProt P15307); experiment: EMSA off-rate; settings: much slower off-rate than mouse RelA; EMSA: 10 mM Tris-HCl pH 7.5, 150 mM NaCl, 1 mM DTT, 1 mM EDTA, 5% glycerol, 80 ng/ul dI-dC, 200 ng/ul BSA, 4 C; off-rate with 100-fold unlabeled consensus; protein in a lysate after overexpression; protein details: N-terminal Flag; label: 32P
[3] = target: RelA RHR chicken (chicken) (UniProt P98152); experiment: EMSA off-rate; settings: comparable to chicken Rel; EMSA: 10 mM Tris-HCl pH 7.5, 150 mM NaCl, 1 mM DTT, 1 mM EDTA, 5% glycerol, 80 ng/ul dI-dC, 200 ng/ul BSA, 4 C; off-rate with 100-fold unlabeled consensus; protein in a lysate after overexpression; protein details: N-terminal Flag; label: 32P
[4] = system: RelA RHR elephant shark (elephant shark); experiment: EMSA off-rate; settings: comparable to elephant shark Rel; EMSA: 10 mM Tris-HCl pH 7.5, 150 mM NaCl, 1 mM DTT, 1 mM EDTA, 5% glycerol, 80 ng/ul dI-dC, 200 ng/ul BSA, 4 C; off-rate with 100-fold unlabeled consensus; protein in a lysate after overexpression; protein details: N-terminal Flag; label: 32P
RelA RHR mouse (mouse) = RelA RHR mouse (mouse) (UniProt Q04207); experiment: EMSA off-rate; settings: faster off-rate than mouse Rel; EMSA: 10 mM Tris-HCl pH 7.5, 150 mM NaCl, 1 mM DTT, 1 mM EDTA, 5% glycerol, 80 ng/ul dI-dC, 200 ng/ul BSA, 4 C; off-rate with 100-fold unlabeled consensus; protein in a lysate after overexpression; protein details: N-terminal Flag; label: 32P
[5] = target: T2, RelA RHR zebrafish (zebrafish) (UniProt A0A8M2BI19); experiment: EMSA off-rate; settings: comparable to zebrafish Rel; EMSA: 10 mM Tris-HCl pH 7.5, 150 mM NaCl, 1 mM DTT, 1 mM EDTA, 5% glycerol, 80 ng/ul dI-dC, 200 ng/ul BSA, 4 C; off-rate with 100-fold unlabeled consensus; protein in a lysate after overexpression; protein details: N-terminal Flag; label: 32P
T2 sequence (looked up, limits assumed): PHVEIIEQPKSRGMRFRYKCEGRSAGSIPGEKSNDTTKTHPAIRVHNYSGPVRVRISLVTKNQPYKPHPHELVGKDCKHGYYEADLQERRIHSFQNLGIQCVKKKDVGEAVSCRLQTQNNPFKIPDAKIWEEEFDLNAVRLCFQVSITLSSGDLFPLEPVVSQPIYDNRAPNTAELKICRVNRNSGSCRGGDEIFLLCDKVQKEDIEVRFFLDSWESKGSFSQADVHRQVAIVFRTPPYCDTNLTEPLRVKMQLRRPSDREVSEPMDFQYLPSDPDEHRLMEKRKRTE

## CCTAACATCAGGGAATTTCCTGATGTTAGG (double strand) [consensus NF-κB]
Rel RHR homodimer
  binding result: binds
RelA RHR homodimer
  binding result: binds
Rel RHR C137Y C143Y
  binding result: binds
Rel RHR R101A R108A
  binding result: binds more weakly
[1]
  binding result: binds more weakly
Rel RHR R101Q R108Q
  binding result: binds more weakly
[2]
  binding result: binds
Rel RHR mouse (mouse)
  binding result: binds
[3]
  binding result: binds
[4]
  binding result: binds
RelA RHR mouse (mouse)
  binding result: binds more weakly
[5]
  binding result: binds
